# These are yes or no findings as the source states them, for the method shown. In cells and extracts the contact can be indirect. A result given as binding can be weak or reduced; the word gives no strength. Sequences can lack the tags named with a protein.
# B1: hemagglutinin [HA]–Livin WT (protein, UniProt Q96CA5 1-298)
# chain: MGPKDSAKCLHRGPQPSHWAAGDGPTQERCGPRSLGSPVLGLDTCRAWDHVDGQILGQLRPLTEEEEEEGAGATLSRGPAFPGMGSEELRLASFYDWPLTAEVPPELLAAAGFFHTGHQDKVRCFFCYGGLQSWKRGDDPWTEHAKWFPSCQFLLRSKGRDFVHSVQETHSQLLGSWDPWEEPEDAAPVAPSVPASGYPELPTPRREVQSESAQEPGGVSPAEAQRAWWVLEPPGARDVEAQLRRLQEERTCKVCLDRAVSIVFVPCGHLVCAECAPGLQLCPICRAPVRSRVRTFLS
# Molecular target: Flag–ARTS WT
# Assay: co-IP; HEK293T cells cotransfected with Flag–ARTS, HA–Livin and Myc–SIAH1 (WT or mutants); IP with anti-Flag, anti-HA or anti-Myc, immunoblot
binder,measurement,value
B1,binding,binds

# Reference: publication PMC12805590
